Data as given in PubChem BioAssay AID2685 (National Center for Advancing Translational Sciences (NCATS), 2010).
The list shows a part of the results. Further columns of the screen follow, without active or inactive calls. The list favours compounds with an active or inconclusive main result. Potencies come from curve fits of mixed quality, noted in brackets.

Test: qHTS Assay for Lipid Storage Modulators in Drosophila S3 Cells;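 on cell number change: cells counted by Cell Tracker Red CMTPX staining in the red channel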
Conditions: BODIPY lipid droplet fluorescence, 18-24 h; for cell number change: measured here: cell count max response, cells fed with added oleic acid
Procedure, shortened: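 Drosophila S3 cells loaded with oleic acid (400 uM, as added) and compounds at several concentrations; lipid droplets imaged by 488-nm laser-scanning cytometry, 500–530 nm intensity and object ratio to cell channel. Percent activity normalized to 20 uM Triacsin C.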

[1] = measured here: cell number channel AC50, cells fed with added oleic acid
[2] = measured here: lipid fluorescence (Fed channel) AC50, cells fed with added oleic acid

Row | Compound | AC50 [1] | AC50 [2] | cell number change
1 | CCOC(=O)c1c(C)sc2c1N(C(=O)CN(CC)CC)c1cc(Cl)ccc1S2 | 3.26 µM [rising, single point] | 0.58 µM [rising, single point] | 
2 | Cc1cccc(C)c1NC(=O)C(c1ccccc1)N1CCN(C(=O)c2ccco2)CC1 (centres undefined) | 1.16 µM [rising, full curve, poor fit] |  | 
3 | Cc1oc2ccc(OCc3ccccc3Cl)cc2c1C(=O)O | 11.6 µM [rising, partial curve] | 29.1 µM [rising, single point] | 91.9%
4 | O=C(Nc1cccc2ncccc12)c1ccco1 |  | 29.1 µM [rising, single point] | -1.67%
5 | O=C1CC(N2CCN(S(=O)(=O)c3cccc(C(F)(F)F)c3)CC2)C(=O)N1Cc1ccccc1 (centres undefined) | 29.1 µM [falling, single point] |  | -37.3%
6 | Cc1cccc2sc(NC(=O)[C@H](C)N3C(=O)C4CC=CCC4C3=O)nc12 (some centres undefined) | 6.51 µM [falling, full curve] | 6.51 µM [falling, single point] | -55.3%
7 | CCOC(=O)c1ccc(NC(=O)CCOc2ccc(OC)cc2)cc1 | 6.51 µM [falling, single point] |  | 
8 | O=C(CNC(=O)c1ccc(Br)cc1)NCCc1nc2ccccc2[nH]1 |  |  | 23.3%
9 | O=C(c1c(Cl)nc2sccn12)N(C(=O)c1c(Cl)nc2sccn12)c1ccc(Cl)cn1 |  |  | -1.55%
10 | Cc1cc(Cl)n2c(nc3ccccc32)c1C#N | 29.1 µM [falling, single point] | 29.1 µM [falling, partial curve] | -128%
11 | Cc1[nH]c2ccccc2c1NC(=O)CN1CCN(Cc2ccc3c(c2)OCO3)CC1 | 5.17 µM [rising, partial curve] |  | 41.5%
12 | COc1ccc(CC(NC(C)=O)C(=O)N2CCN(C(=O)Nc3ccc(Cl)cc3)CC2)cc1OC (centres undefined) |  | 7.31 µM [rising, partial curve] | 15.7%
13 | N#Cc1c(NC(=O)CSc2nnc(-c3ccccc3O)n2-c2ccccc2)sc2c1CCCC2 |  |  | 14.4%
14 | COCCCN1C(=O)C2C(C(=O)Nc3cc(C)cc(C)c3)C3C=CC2(O3)C1C(=O)NC1CCCCC1 (centres undefined) |  | 25.9 µM [falling, single point] | -4.03%
15 | O=C(c1ccc(Br)o1)N1CCN(CCc2ccncc2)CC1 |  |  | -14.8%
16 | O=Nc1c(O)n(Cc2ccc(Cl)c(Cl)c2)c2ccccc12 | 11.6 µM [falling, partial curve, poor fit] |  | -53%
17 | COc1ccc(CCNC(=O)c2ccccc2OCc2c(C)noc2C)cc1 |  | 0.651 µM [rising, partial curve] | 28.7%
18 | COc1ccc(CCNC(=O)c2c(C)nn(-c3ccccc3)c2Cl)cc1 | 20.6 µM [rising, single point] | 18.4 µM [rising, single point] | 43%
19 | Cc1ccccc1NC(=O)C1Cc2ccccc2CN1C(=O)OCc1ccccc1 (centres undefined) |  | 7.31 µM [rising, partial curve] | 21.6%
20 | CC(=O)NC(NC(=S)Nc1c(C)n(C)n(-c2ccccc2)c1=O)C(Cl)(Cl)Cl (centres undefined) |  | 5.17 µM [falling, full curve] | -47.5%
21 | CN1/C(=C\C=[N+](C)c2ccccc2)C(C)(C)c2ccccc21 |  |  | -20.7%

Row | Compound | AC50 [1] | AC50 [2] | cell number change
22 | Fc1ccccc1COc1cccc(/C=N/n2cnnc2)c1 |  |  | -13.4%
23 | CCOC(=O)N1CCN(c2ncnc3c2oc2nc(C)c4c(c23)CC(C)(C)OC4)CC1 |  | 2.31 µM [rising, single point] | 13.9%
24 | CCOC(=O)C(=O)c1c(-c2ccccc2)nc2ccccn12 |  | 6.51 µM [falling, single point] | 21.3%
25 | CCOc1ccc(CNC(=O)C2Cc3cc(S(=O)(=O)N4CCCC4)ccc3N2C(C)=O)cc1 (centres undefined) |  | 29.1 µM [rising, single point] | 14.2%
26 | COc1ccc(C(C)=O)cc1COc1cc(C)c(Cl)c(C)c1 |  | 2.59 µM [rising, full curve, poor fit] | 15.5%
27 | COC(=O)c1cnn2c(C(F)(F)F)cc(-c3ccco3)nc12 | 3.66 µM [rising, partial curve, poor fit] |  | 
28 | CC12CCC(C(=O)NCc3ccccn3)(OC1=O)C2(C)C (centres undefined) |  | 18.4 µM [rising, single point] | 
29 | O=C(CN1CCN(C(=O)N2CCOCC2)CC1)Nc1cc(Cl)ccc1Cl |  | 6.51 µM [falling, single point] | 18.5%
30 | Cc1ccc(C(C)C)c(OC/C(O)=C(\C#N)c2nc3ccccc3[nH]2)c1 | 0.00461 µM [rising, full curve, poor fit] | 29.1 µM [rising, partial curve, poor fit] | 31.9%
31 | COc1ccc(OC)c(N(CC(=O)NC2CCCCCC2)S(=O)(=O)c2ccc(C)cc2)c1 |  | 16.4 µM [falling, single point] | -7.62%
32 | COc1ccc(/C=C/C(=O)OCC(=O)c2ccc(S(=O)(=O)N3CCCCC3)cc2)cc1OC | 4.61 µM [falling, single point] |  | 
33 | CC1Cc2ccccc2N1CC(=O)N(C)c1c(N)n(Cc2ccccc2)c(=O)[nH]c1=O (centres undefined) | 1.64 µM [rising, full curve, poor fit] |  | 8.46%
34 | N#Cc1c(SCC(=O)O)nc(N2CCCCC2)c2c1CCCC2 | 2.31 µM [rising, single point] |  | 
35 | Cc1cc(C(=O)N/N=C/c2cccc(Cl)c2Cl)no1 |  | 2.06 µM [rising, partial curve] | 27.6%
36 | O=C(NC1CCCCC1)C(c1ccccc1)N(Cc1ccco1)C(=O)c1csnn1 (centres undefined) |  | 6.51 µM [falling, single point] | 6.31%
37 | CC(=O)Nc1ccc(S(=O)(=O)NC2=C(N3CCN(C)CC3)C(=O)c3ccccc3C2=O)cc1 |  | 29.1 µM [rising, single point] | -6.11%
38 | Cc1onc(-c2ccccc2Cl)c1C(=O)N(C)C1CCCCC1 | 20.6 µM [falling, single point] | 20.6 µM [falling, single point] | -53%
39 | O=C(c1cc(-c2ccccc2)on1)N1CCN(Cc2ccc3c(c2)OCO3)CC1 | 13 µM [rising, partial curve, poor fit] |  | 52.9%
40 | Cc1ccc(S(=O)(=O)c2cc3c(=O)n4ccccc4nc3n(CCCN3CCOCC3)c2=N)cc1C |  |  | 1.83%
41 | COc1cccc(NC(=O)C2CC(=O)OC23CCOC(C)(C)C3)c1 (centres undefined) | 0.731 µM [falling, single point] |  | 10.6%
42 | COc1ccc(-n2c(O)c(/C=N/Nc3nc(C)cc(C)n3)c3ccccc3c2=O)cc1OC |  |  | -11.6%

Sorted by length of the SMILES (falling): some entries from above.
Row | Compound | AC50 [1] | AC50 [2] | cell number change
25 | CCOc1ccc(CNC(=O)C2Cc3cc(S(=O)(=O)N4CCCC4)ccc3N2C(C)=O)cc1 (centres undefined) |  | 29.1 µM [rising, single point] | 14.2%
27 | COC(=O)c1cnn2c(C(F)(F)F)cc(-c3ccco3)nc12 | 3.66 µM [rising, partial curve, poor fit] |  | 
34 | N#Cc1c(SCC(=O)O)nc(N2CCCCC2)c2c1CCCC2 | 2.31 µM [rising, single point] |  | 

Further compounds follow:

Row | Compound | AC50 [1] | AC50 [2] | cell number change
43 | CCOc1ccc(CC(C(N)=O)C(N)=O)cc1 |  | 3.66 µM [falling, single point] | -0.733%
44 | CCOC(=O)c1nnc(-c2ccc(C)cc2)nc1Oc1ccccc1Cl |  | 2.06 µM [falling, partial curve] | 
45 | COc1ccccc1C(CNC(=O)c1ccc(NS(=O)(=O)c2ccc(F)c(C)c2)cc1)N1CCCC1 (centres undefined) | 13 µM [rising, partial curve, poor fit] |  | 41.2%
46 | CCOC(=O)c1c(-c2ccc(OC)cc2)csc1NC(=O)CCN1CCOCC1 |  |  | -57.9%
47 | COc1cccc(CC(NC(C)=O)C(=O)NC2CCN(C(=O)c3ccc(Cl)cc3)CC2)c1OC (centres undefined) |  |  | -15.4%
48 | CCOc1cc(S(=O)(=O)N2CCC(C(N)=O)CC2)ccc1F |  | 1.03 µM [falling, full curve, poor fit] | -8.49%
49 | C[C@H](NC(=O)c1ccco1)C(=O)N1CCCC1 |  |  | 17.1%
50 | O=C(NC1CCCC1)C1CCN(C(=O)c2ccc(Cl)cc2)CC1 |  | 29.1 µM [falling, single point] | 20.4%
51 | Cc1ccc(NC(=O)CN(C)C(=O)c2ccc(Br)o2)cc1 |  |  | 29.8%
52 | Cc1oc2c(CN3CCCC(C)C3)c(O)ccc2c(=O)c1-c1ccccc1 (centres undefined) |  | 29.1 µM [rising, single point] | 
53 | CC(=Nc1ccccc1O)c1sc2ccccc2c1O |  | 18.4 µM [falling, single point] | 
54 | O=c1[nH]c(NCCO)nc2c1C1(CCCCC1)Cc1ccccc1-2 | 29.1 µM [falling, single point] | 5.17 µM [falling, partial curve, poor fit] | -64.1%
55 | CCOC(=O)N1CCN(C(=O)c2cc(COc3cccc(C(F)(F)F)c3)on2)CC1 | 7.31 µM [rising, partial curve, poor fit] |  | 25.6%
56 | Cc1nnc(NC(=O)/C=C/c2ccco2)s1 |  | 20.6 µM [falling, single point] | 7.43%
57 | NC1=NC(c2ccccc2)N=C(Nc2ccccc2)N1 (centres undefined) | 0.092 µM [rising, full curve] | 6.51 µM [falling, single point] | 26.5%
58 | Fc1cccc(Cl)c1CSC1=NCCS1 |  | 29.1 µM [rising, partial curve] | 14.3%
59 | CCOC(=O)CSc1nnc(Cc2ccc(OC)cc2)n1-c1ccccc1 | 9.2 µM [rising, partial curve, poor fit] |  | 33.3%
60 | Cc1ccc(C)c(C(=O)c2ccccc2NC(=O)c2ccccn2)c1 |  | 14.6 µM [rising, partial curve] | 8.4%
61 | COCCn1c(=O)[nH]c(=O)c2cc(C(=O)c3cc(Cl)ccc3O)cnc21 | 0.103 µM [rising, full curve, poor fit] | 0.146 µM [rising, full curve, poor fit] | 
